# Experimental data: PubChem BioAssay AID330 (DTP/NCI, 2004)
# The list does not hold the whole screen: it gathers tests that were run many times, whatever their T/C, doses with no T/C, and many T/C values between a quarter and a half above the control. Other doses and runs of a compound stand elsewhere. T/C: endpoint of the treated group in % of that of the vehicle group. Some entries give survivors of the animals treated and no T/C: the source files T/C as zero there, which appears to mark a toxic dose or a test without result, not a measured value. Some doses without a T/C left all or most animals alive at the check, yet need not have been tolerated: the source hardly ever lists a survival T/C far under the control, and the zero likely stands for such cases as well. Survivors were counted at the toxicity check, usually on the fifth day, unless a day is given; later deaths do not show. Schedule codes are those of the source, read here as Q, the interval in days (D) or hours (H), X, the number of doses. Some doses were run more than once; the results are listed from low to high. Some structures stand for samples that the source files as different forms (salt, stereo form or complex); doses refer to the form tested. For survival time, this PubChem deposit counts one and a half times the control or more as active, and values a quarter to a half above the control carry no call in these data; other NCI protocols may use other cut-offs. Some T/C values carry the count of animals alive at the toxicity check (mostly the fifth day); where none is given, no animal had died by that day.
# System: P388 leukemia ip, CD2F1 mice, survival T/C
# Experiment: NCI In Vivo Anticancer Drug Screen. Data for tumor model P388 Leukemia (intraperitoneal) in CD2F1 (CDF1) mice
# Conditions: T/C endpoint: median survival time, higher T/C = longer survival
# [1] = dose: 120.0 mg/kg/injection, schedule: Q01DX005 (ip), vehicle: Klucel (hydroxypropylcellulose) (HPC)
# [2] = dose: 240.0 mg/kg/injection, schedule: Q01DX005 (ip), vehicle: Klucel (hydroxypropylcellulose) (HPC)
# [3] = dose: 100.0 mg/kg/injection, schedule: Q01DX005 (ip), vehicle: Klucel (hydroxypropylcellulose) (HPC)
# [4] = dose: 200.0 mg/kg/injection, schedule: Q01DX005 (ip), vehicle: Klucel (hydroxypropylcellulose) (HPC)
# [5] = dose: 100.0 mg/kg/injection, schedule: Q01DX009 (ip), vehicle: saline with Tween-80
# [6] = dose: 400.0 mg/kg/injection, schedule: Q01DX009 (ip), vehicle: saline with Tween-80
# [7] = dose: 60.0 mg/kg/injection, schedule: Q01DX005 (ip), vehicle: saline with Tween-80
# [8] = dose: 240.0 mg/kg/injection, schedule: Q01DX005 (ip), vehicle: saline with Tween-80
# [9] = dose: 12.5 mg/kg/injection, schedule: Q01DX009 (ip), vehicle: saline
# [10] = dose: 200.0 mg/kg/injection, schedule: Q04DX002 (ip), vehicle: saline with Tween-80
# [11] = dose: 400.0 mg/kg/injection, schedule: Q04DX002 (ip), vehicle: saline with Tween-80
# [12] = dose: 7.5 mg/kg/injection, schedule: Q01DX005 (ip), vehicle: Klucel (hydroxypropylcellulose) (HPC)
structure (smiles),measurement,setting,value
Nc1c2cc3c(cc2c[n+]2ccc4ccccc4c12)OCO3,T/C,"dose: 50.0 mg/kg/injection, schedule: Q04DX003 (ip), vehicle: distilled water + Tween-80","93 [5 of 6 alive], 100, 111 [5 of 6 alive], 118 % of control"
same,survivor count,"dose: 100.0 mg/kg/injection, schedule: Q04DX003 (ip), vehicle: distilled water + Tween-80","0 of 6, 1 of 6, 5 of 6"
same,survivor count,"dose: 200.0 mg/kg/injection, schedule: Q04DX003 (ip), vehicle: distilled water + Tween-80",0 of 6
same,survivor count,"dose: 400.0 mg/kg/injection, schedule: Q04DX003 (ip), vehicle: distilled water + Tween-80",0 of 6
COc1cc(N)c(C)c2c(C)ccnc12,survivor count,[1],0 of 6
same,survivor count,[2],0 of 6
CS/C(=C/c1ccc2ccccc2[n+]1C)N1CCOCC1,survivor count,"dose: 50.0 mg/kg/injection, schedule: Q01DX005 (ip), vehicle: saline with Tween-80",0 of 5 and 0 of 6
same,survivor count,"dose: 100.0 mg/kg/injection, schedule: Q01DX005 (ip), vehicle: saline with Tween-80",0 of 6
same,survivor count,"dose: 200.0 mg/kg/injection, schedule: Q01DX005 (ip), vehicle: saline with Tween-80",0 of 6
Cc1cc2c(cc1C)NC1=C(N2)OC(c2ccccc2C)C1=O (stereo not drawn),survivor count,[2],4 of 6
Cc1ccc2nc(N(C)C)[nH]c2c1,survivor count,"dose: 200.0 mg/kg/injection, schedule: Q01DX005 (ip), vehicle: other",0 of 6
CN1c2ccccc2N=Cc2c1oc1ccc3ccccc3c1c2=O,survivor count,"dose: 50.0 mg/kg/injection, schedule: Q01DX005 (ip), vehicle: Klucel (hydroxypropylcellulose) (HPC)",0 of 6
same,survivor count,[3],3 of 6
same,survivor count,[4],1 of 6
Cc1cc(NCCCN(C)C)c2ccc3c(ccc4c(NCCCN(C)C)cc(C)nc43)c2n1,T/C,"dose: 50.0 mg/kg/injection, schedule: Q01DX009 (ip), vehicle: saline with Tween-80",125 % of control
same,survivor count,[5],0 of 6
O=C(O)CCSC1=CC(=O)c2ccccc2C1=O,survivor count,"dose: 25.0 mg/kg/injection, schedule: Q04DX003 (ip), vehicle: gum acacia",1 of 6
same,survivor count,"dose: 100.0 mg/kg/injection, schedule: Q04DX003 (ip), vehicle: gum acacia",0 of 6
same,survivor count,"dose: 200.0 mg/kg/injection, schedule: Q04DX003 (ip), vehicle: gum acacia",0 of 6
same,survivor count,"dose: 400.0 mg/kg/injection, schedule: Q04DX003 (ip), vehicle: gum acacia",0 of 6
Cc1ccc(C)[nH][nH]c(N)n1,survivor count,"dose: 200.0 mg/kg/injection, schedule: Q01DX009 (ip), vehicle: water",1 of 6
same,survivor count,"dose: 400.0 mg/kg/injection, schedule: Q01DX009 (ip), vehicle: water",0 of 6
NCCCNCCSP(=O)(O)O,T/C,[5],135 % of control
same,survivor count,"dose: 200.0 mg/kg/injection, schedule: Q01DX009 (ip), vehicle: saline",3 of 6
same,survivor count,[6],0 of 6
same,survivor count,"dose: 400.0 mg/kg/injection, schedule: Q01DX009 (ip), vehicle: saline",5 of 6
Oc1ccc2ncc(CBr)c(CBr)c2c1,survivor count,[7],3 of 6
same,survivor count,"dose: 120.0 mg/kg/injection, schedule: Q01DX005 (ip), vehicle: saline with Tween-80",0 of 6
same,survivor count,[8],0 of 6
Clc1ccc2c(NCC3CCCN4CCCCC34)ccnc2c1 (stereo not drawn),survivor count,[4],1 of 6
Cc1cccc(Nc2cc(=O)[nH]c(=O)[nH]2)c1,survivor count,"dose: 400.0 mg/kg/injection, schedule: Q04DX003 (ip), vehicle: Klucel (hydroxypropylcellulose) (HPC)",3 of 6
O=S1(=O)OCCCCO1,survivor count,"dose: 50.0 mg/kg/injection, schedule: Q01DX005 (ip), vehicle: saline",0 of 6
same,survivor count,"dose: 100.0 mg/kg/injection, schedule: Q01DX005 (ip), vehicle: saline",0 of 6
Nc1cccc[n+]1CCCCCC[n+]1ccccc1N,survivor count,[9],2 of 6
Fc1ccc(NP(=S)(Nc2ccc(F)cc2F)Nc2ccc(F)cc2F)c(F)c1,survivor count,[10],0 of 6
same,survivor count,[11],0 of 6
C(=P(c1ccccc1)(c1ccccc1)c1ccccc1)[P+](c1ccccc1)(c1ccccc1)c1ccccc1,T/C,[9],127 % of control
same,T/C,"dose: 25.0 mg/kg/injection, schedule: Q01DX009 (ip), vehicle: saline",140 % of control
same,T/C,"dose: 25.0 mg/kg/injection, schedule: Q01DX009 (ip), vehicle: suspension in saline",137 % of control
CC(C)=CCCC(C)(OC1OC(CO)C(O)C(O)C1O)C1CCC2(C)C1C(O)CC1C3(C)CCC(O)C(C)(C)C3C(OC3OC(CO)C(O)C(O)C3OC3OC(C)C(O)C(O)C3O)CC12C (stereo not drawn) (tested in a mixture with another compound),survivor count,"dose: 300.0 mg/kg/injection, schedule: Q01DX009 (ip), vehicle: Klucel (hydroxypropylcellulose) (HPC)",0 of 6
COC(=O)NC(=Nc1cccc(C(=O)c2ccc3nc(NC(=O)OC)[nH]c3c2)c1)NC(=O)OC,T/C,[7],128 % of control
same,survivor count,[8],3 of 6
OCCN1CCN(CCCN2c3cscc3Sc3ccc(Cl)cc32)CC1,survivor count,"dose: 25.0 mg/kg/injection, schedule: Q01DX005 (ip), vehicle: Klucel (hydroxypropylcellulose) (HPC)",5 of 6
same,survivor count,[3],3 of 6
same,survivor count,[4],0 of 6
O=S(=O)(O)CC[S][Sn]([S]CCS(=O)(=O)O)([c]1ccccc1)[c]1ccccc1,T/C,"dose: 0.93 mg/kg/injection, schedule: Q01DX005 (ip), vehicle: Klucel (hydroxypropylcellulose) (HPC)",132 % of control
same,T/C,"dose: 1.87 mg/kg/injection, schedule: Q01DX005 (ip), vehicle: Klucel (hydroxypropylcellulose) (HPC)",142 % of control
same,T/C,"dose: 3.75 mg/kg/injection, schedule: Q01DX005 (ip), vehicle: Klucel (hydroxypropylcellulose) (HPC)",144 % of control [5 of 6 alive]
same,T/C,[12],137 % of control [5 of 6 alive]
same,survivor count,[12],2 of 6
same,survivor count,"dose: 15.0 mg/kg/injection, schedule: Q01DX005 (ip), vehicle: Klucel (hydroxypropylcellulose) (HPC)",0 of 6
same,survivor count,"dose: 60.0 mg/kg/injection, schedule: Q01DX005 (ip), vehicle: Klucel (hydroxypropylcellulose) (HPC)",0 of 6
same,survivor count,[1],0 of 6
same,survivor count,[2],0 of 6
COc1cc2c3cc1Oc1c(OC)c(OC)cc4c1[C@@H](Cc1ccc(O)c(c1)Oc1ccc(cc1)C[C@@H]3N(C)CC2)N(C)CC4,survivor count,[2],0 of 6 and 2 of 6
OCc1c(CO)c(-c2ccc(Cl)c(Cl)c2)n2c1CCC2,T/C,"dose: 200.0 mg/kg/injection, schedule: Q01DX009 (ip), vehicle: saline with Tween-80",131 % of control
same,T/C,[6],127 and 138 % of control
C[CH2][Sn]([F])([F])[CH2]C,survivor count,"dose: 100.0 mg/kg/injection, schedule: Q04DX003 (ip), vehicle: saline",0 of 6
same,survivor count,"dose: 200.0 mg/kg/injection, schedule: Q04DX003 (ip), vehicle: saline",0 of 6
same,survivor count,"dose: 400.0 mg/kg/injection, schedule: Q04DX003 (ip), vehicle: saline",0 of 6
C=C1CC2(CCS(=O)(=O)c3ccccc32)OC1=O (stereo not drawn),survivor count,"dose: 100.0 mg/kg/injection, schedule: Q04DX002 (ip), vehicle: saline with Tween-80",4 of 6
same,survivor count,[10],0 of 6
same,survivor count,[11],0 of 6
C[n+]1c(-c2cccc(OCCOCCOc3cccc(-c4c5cc(N)ccc5c5ccc(N)cc5[n+]4C)c3)c2)c2cc(N)ccc2c2ccc(N)cc21,T/C,"dose: 0.39 mg/kg/injection, schedule: Q01DX009 (ip), vehicle: water",134 % of control
same,T/C,"dose: 1.56 mg/kg/injection, schedule: Q01DX009 (ip), vehicle: water",142 % of control
same,T/C,"dose: 3.13 mg/kg/injection, schedule: Q01DX009 (ip), vehicle: water",133 % of control
CC(=O)NS(=O)(=O)c1ccc(N=NC2C(=O)N(C(=O)c3ccccc3)N=C2C)cc1 (stereo not drawn),survivor count,"dose: 400.0 mg/kg/injection, schedule: Q01DX001 (ip), vehicle: Klucel (hydroxypropylcellulose) (HPC)",6 of 6
Cc1cc2ccccc2c[n+]1[O-],survivor count,[4],0 of 5
